Laboratory results reported in PMC11996675.
Results are given in words; binding and its absence hold for the method and conditions named. In cells and extracts the contact can be indirect. Binding can be weak; no strength is given.

Protein sequences, listed by entry. Tags and fused reporters are not part of them. Lines headed by an entry give the natural chain unless they say otherwise; changes in a name come on top.
UniProt Q9UJF2: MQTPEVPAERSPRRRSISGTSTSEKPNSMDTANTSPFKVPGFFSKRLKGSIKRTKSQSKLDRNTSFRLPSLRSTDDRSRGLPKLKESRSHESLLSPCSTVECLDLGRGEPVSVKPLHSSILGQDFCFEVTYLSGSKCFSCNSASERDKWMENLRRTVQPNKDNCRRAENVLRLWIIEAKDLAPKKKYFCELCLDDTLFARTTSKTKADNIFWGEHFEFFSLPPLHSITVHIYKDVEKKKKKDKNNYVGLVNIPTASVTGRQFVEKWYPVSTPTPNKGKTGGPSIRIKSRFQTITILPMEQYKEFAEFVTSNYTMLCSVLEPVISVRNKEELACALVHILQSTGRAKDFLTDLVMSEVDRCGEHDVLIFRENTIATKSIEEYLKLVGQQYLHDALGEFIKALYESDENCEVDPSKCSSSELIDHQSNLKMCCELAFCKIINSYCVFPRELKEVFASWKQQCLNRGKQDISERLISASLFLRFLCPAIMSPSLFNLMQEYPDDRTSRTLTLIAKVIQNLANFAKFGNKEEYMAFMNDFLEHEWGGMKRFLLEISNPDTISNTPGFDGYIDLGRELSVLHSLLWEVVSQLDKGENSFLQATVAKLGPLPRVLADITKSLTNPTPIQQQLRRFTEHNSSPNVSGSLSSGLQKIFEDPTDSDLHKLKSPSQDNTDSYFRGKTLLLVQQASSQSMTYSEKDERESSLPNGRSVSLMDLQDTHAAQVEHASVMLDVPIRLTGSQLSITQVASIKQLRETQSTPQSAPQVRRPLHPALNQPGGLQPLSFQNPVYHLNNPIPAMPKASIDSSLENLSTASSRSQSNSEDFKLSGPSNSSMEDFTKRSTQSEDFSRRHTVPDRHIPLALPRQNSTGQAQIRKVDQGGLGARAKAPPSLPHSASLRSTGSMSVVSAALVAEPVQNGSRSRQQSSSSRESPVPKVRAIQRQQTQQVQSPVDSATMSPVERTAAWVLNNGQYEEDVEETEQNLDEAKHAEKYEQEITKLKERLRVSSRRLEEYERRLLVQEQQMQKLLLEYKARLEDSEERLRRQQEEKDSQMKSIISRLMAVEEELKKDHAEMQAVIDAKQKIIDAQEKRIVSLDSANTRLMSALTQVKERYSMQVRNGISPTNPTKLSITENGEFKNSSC
UniProt P10415: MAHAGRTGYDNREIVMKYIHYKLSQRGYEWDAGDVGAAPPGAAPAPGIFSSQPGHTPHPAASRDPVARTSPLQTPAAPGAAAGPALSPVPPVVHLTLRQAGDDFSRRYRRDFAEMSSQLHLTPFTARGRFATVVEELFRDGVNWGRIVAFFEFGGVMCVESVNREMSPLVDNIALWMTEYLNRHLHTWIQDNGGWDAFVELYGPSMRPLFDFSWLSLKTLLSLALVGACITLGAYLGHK

Biological target: full-length wild-type RASAL2 (XLG3-EGFP vector) (human (amplified from MDA-MB-468)) (UniProt Q9UJF2)
Test: co-IP; EGFP-vector RASAL2 variants transfected into MDA-MB-468; 1 mg precleared lysate on GFP-Trap agarose beads at 4 C overnight, immunoblotting

BCL2 (from UniProt P10415 1-239)
binding: binds
